# Results from PubChem BioAssay AID1487 (National Center for Advancing Translational Sciences (NCATS), 2009).
# Where “and” joins values, the source holds several entries; their conditions need not be identical. Identical values can stand only once. This is one part of the list. The main result of the screen is listed elsewhere. These columns were measured beside it and carry no call. Compounds called inactive in the main read-out are mostly missing here. Potencies come from curve fits of mixed quality, noted in brackets.
# Assay: qHTS Assay for Modulators of Lamin A Splicing
# Settings: HeLa LMNA splicing GFP/RFP minigene ratio, 48 h
# Outline: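 S3 HeLa stable clones carrying a lamin A-EGFP splicing minigene plus DsRed2 were seeded at 600 cells/well in Opti-MEM with 2% FBS, pin-dosed and incubated 48 h at 37°C. Acumen cytometry (488 nm) gave the GFP/RFP total-intensity ratio.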
# [1] = measured here: RFP viability control channel
# [2] = measured here: GFP splicing reporter channel
Structure (SMILES),AC50 [1],AC50 [2]
O=C(NCCC1=CCCCC1)c1ccc(Cl)c(S(=O)(=O)N2CCOCC2)c1,"22.4 µM [rising, single point]",
O=C(NCc1ccc(Cl)cc1)C1=Cc2cc(Br)ccc2OC1,"11.2 µM [rising, single point]",
FC(F)(F)COc1nc(N2CCOCC2)nc(N(c2ccccc2)c2ccccc2)n1,"12.6 µM [rising, partial curve]",
CN(CC(=O)Nc1cccc(S(=O)(=O)NC2=NCCCCC2)c1)Cc1ccc(C(C)(C)C)cc1,,"6.31 µM [falling, partial curve]"
CC1CCCCN1CCCNC(=O)CN1C(=O)CSc2ccc(S(=O)(=O)N3CCOCC3)cc21 (centres undefined),,"20 µM [falling, partial curve, poor fit]"
O=C(/C=C(\c1ccc(Cl)cc1)n1cncn1)c1ccc(Cl)cc1,"35.5 µM [falling, single point]","35.5 µM [falling, single point]"
O=C1CCCN1CCCN=c1c([N+](=O)[O-])nn(-c2ccc(Cl)cc2)n1O,"15.8 µM [falling, partial curve, poor fit]",
Cc1ccc(S(=O)(=O)Nc2ccc3nc(C)sc3c2)cc1,"2.82 µM [rising, full curve]","1.58 µM [rising, full curve]"
CN1C(=O)C2(Oc3ccccc3C3CC(c4ccccc4)=NN32)c2ccccc21 (centres undefined),"5.62 µM [falling, full curve, poor fit]","7.94 µM [falling, partial curve, poor fit]"
O=C(NC(c1ccccc1)C(Cl)Cl)c1ccccc1 (centres undefined),"31.6 µM [rising, single point]",
COc1cc(OC)c(OC)cc1/C=C/C(=O)c1ccc(NS(=O)(=O)c2ccc(C)cc2)cc1,"2.82 µM [rising, full curve, poor fit]",
CCc1sc(C(=O)NCc2cc(C)n(C)n2)cc1Br,"25.1 µM [rising, single point]","17.8 µM [rising, single point]"
Cc1ccc(SCC(=O)c2c(C)[nH]c3ccccc23)cc1,"35.5 µM [rising, single point]",
CCc1ccc(NC(=O)Nc2ccccc2OCc2cc(=O)n3ccccc3n2)cc1,"20 µM [falling, single point]",
COc1cc(OC)c(-c2cc(C(=O)O)ccc2OC)c(OC)c1,"0.355 µM [rising, single point]",
O=C(c1ccccc1)n1ccn(-c2ccccc2)c1=S,"15.8 µM [rising, partial curve]",
Cn1nc(C(C)(C)C)cc1C(=O)Nc1nc2c(s1)C(=O)CC(C)(C)C2,"3.55 µM [falling, single point]","3.55 µM [falling, single point]"
Cc1ccc(-c2nnn(CC(=O)N(Cc3cccs3)C(C(=O)NC3CCCC3)c3ccncc3)n2)cc1 (centres undefined),"17.8 µM [rising, single point]","11.2 µM [falling, partial curve]"
N=c1n(CCN2CCOCC2)c2ccccc2n1CC(=O)c1ccc(Cl)c(Cl)c1,"22.4 µM [falling, partial curve]","20 µM [falling, single point]"
Cc1cc(C)cc(NC(=O)CSc2cc(C(=O)c3nccn3C)c3ccccc3n2)c1,"1.12 µM [rising, partial curve, poor fit]","0.355 µM [rising, partial curve, poor fit]"
CC(C)COCC(CN(Cc1ccccc1)c1ccccc1)N1CCCC1 (centres undefined),"4.47 nM [falling, full curve, poor fit] and 1.12 µM [falling, partial curve, poor fit]","22.4 µM [falling, single point] and 22.4 nM [falling, full curve, poor fit] and 891 nM [falling, partial curve]"
CC1=C(Sc2nc3ccccc3[nH]2)C(=O)NC(C)(C)C1,,"5.62 µM [rising, single point]"
O=C(Nc1ccc(F)cc1)C(c1ccccc1)N1CCN(S(=O)(=O)c2c(F)cccc2F)CC1 (centres undefined),"35.5 µM [rising, single point]",
CCOC(=O)c1cnc(N2CCN(c3cccc(C)c3C)CC2)c2ccccc12,,"10 µM [falling, partial curve, poor fit]"
O=C(NNc1cc(Cl)ccc1Cl)c1cccnc1Cl,,"10 µM [rising, partial curve]"
Cc1ccc(NCC(=O)Nc2cccc(S(=O)(=O)N(C)C)c2)c(Cl)c1,"20 µM [rising, single point]",
COc1ccc(-c2nc3c(c4c2C[C@H](c2ccccc2)OC4)CN(S(=O)(=O)c2ccc(Cl)c4nonc24)CC3)c(C)c1,"2 µM [falling, partial curve]","4.47 µM [falling, partial curve, poor fit]"

Structure (SMILES),AC50 [1],AC50 [2]
CCOc1ccccc1N(C(=O)c1snc(C(N)=O)c1N)C(C(=O)NCCC(C)C)c1ccco1 (centres undefined),"22.4 µM [rising, single point]",
CCCCOc1ccc(OC(=O)c2cccnc2)cc1,,"6.31 µM [falling, full curve]"
COc1ccc(C)cc1N(C(=O)c1cccc(F)c1)c1nc2ccccc2s1,"14.1 µM [rising, partial curve, poor fit]",
COc1ccccc1NC1=C(N2CCCCC2)C(=O)c2ccccc2C1=O,,"5.62 µM [falling, full curve]"
Cc1ccc2nc(NNC(=O)c3ccc(S(=O)(=O)N4CCc5ccccc5C4)cc3)sc2c1,"4.47 µM [rising, full curve, poor fit]","0.316 µM [falling, full curve, poor fit]"
COc1ccc([N+](=O)[O-])cc1/C=N/Nc1nc(N2CCCCC2)nc(N2CCCCC2)n1,,"0.891 µM [rising, single point]"
O=S(=O)(Nc1nc2ccccc2nc1N1CCc2ccccc2C1)c1ccc(Cl)cc1,"17.8 µM [rising, single point]",
O=C(COC(=O)c1cc(Br)ccc1O)Nc1cc(S(=O)(=O)N2CCCC2)ccc1Cl,,"0.0112 µM [rising, full curve, poor fit]"
COc1ccccc1NC(=O)N1CCc2[nH]c3ccc(F)cc3c2C1,,"12.6 µM [rising, single point]"
CC(=O)C1=C(c2ccc(F)cc2)N(C(C)=O)n2c(nnc2C2CCCCC2)S1,"2.51 µM [falling, partial curve]","2 µM [falling, partial curve]"
Cn1c(=O)c2[nH]c(C3CCCC3)nc2n(C)c1=O,"0.00501 µM [falling, full curve, poor fit]","3.98 µM [falling, single point]"
C#CCN1C(=O)S/C(=C/C=C/c2ccc(N(C)C)cc2)C1=O,,"10 µM [rising, partial curve]"
CCOC(=O)NCc1ccc(S(=O)(=O)Nc2ccc(C)cc2)cc1,"35.5 µM [rising, single point]",
Cc1ccc(C)c(N2CCN(S(=O)(=O)c3ccc(-c4cnc(C5CC5)o4)cc3)CC2)c1,"5.01 µM [rising, full curve]",
Cn1c(SCc2c(F)cccc2Cl)nc2c(c1=O)SCC2,"10 µM [rising, partial curve]",
COc1ccc(CN(C(=O)c2ccco2)c2ccc(Br)cc2)cc1OC,"7.94 µM [rising, partial curve]",
O=C(/C=C/Sc1ccccc1)c1ccc(Cl)cc1,"35.5 µM [falling, single point]",
COC(=O)c1cc(CSc2nc3ccc(C)cc3[nH]2)oc1C,"12.6 µM [rising, partial curve]",
CCOc1ccccc1CN1CCc2nc(N3CCN(C)CC3)ncc2C1,"3.16 µM [falling, partial curve, poor fit]","14.1 µM [falling, single point]"
O=[N+]([O-])c1ccc(/C=C2\CCC(C3=CCCC3)=C2N2CCOCC2)cc1,"35.5 µM [rising, single point]","20 µM [rising, single point]"
CCOc1cc(NC(=O)c2cccs2)c(OCC)cc1NC(=O)c1cccnc1,"0.631 µM [falling, partial curve]","1.58 µM [falling, partial curve]"
Cc1cccc(-n2nnc(C(=O)NCc3ccccc3)c2N)c1,"15.8 µM [rising, single point]","35.5 µM [rising, single point]"
CCOc1ccc(-c2cc(C(=O)NC(C)c3ccccc3)c3ccccc3n2)cc1 (centres undefined),"0.00355 µM [falling, full curve, poor fit]",
CS(=O)(=O)N(CC(=O)NCc1ccco1)c1ccccc1Cl,,"25.1 µM [rising, single point]"
c1ccc2c(N3CCNCC3)nc(-c3ccoc3)nc2c1,"17.8 µM [rising, partial curve]","14.1 µM [rising, single point]"
CCOC(=O)[C@@H](N)CS,"4.47 µM [rising, full curve, poor fit]","0.891 µM [falling, single point]"
COc1cc(Cl)c(C)cc1NC(=O)C1CCN(c2nc3ccccc3n3cccc23)CC1,"22.4 µM [falling, partial curve]","22.4 µM [falling, partial curve, poor fit]"
